Experimental data as given in PubChem BioAssay AID1347426 (Functional Genomics Laboratory (NCATS/FGL), 2020).
Out of some 31,000 sequences screened, about 1,400 (4.5%) were called active.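 Rule for the calls: active = median seed-adjusted z-score above 1 or below -1; inactive = the rest.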 This is one part of the list.

Assay: Novel Modifiers of Survival Motor Neuron (SMN) Protein: Gene Identification via Genome-wide siRNA Screen;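 note: luminescence tracks full-length SMN protein made from the SMN2 reporter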
Details: HEK293T SMN2-luciferase reporter, siRNA knockdown, 72 h; actives lie on both sides
How it was run: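 HEK293T cells stably carrying an SMN2 promoter/splicing cassette–luciferase reporter were reverse-transfected with 1 pmol siRNA per well (druggable-genome library, 3 siRNAs per gene) and grown 72 h at 37 °C. Luminescence, normalized to negative-control siRNA and log10-transformed, was scored as MAD.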

Row | Sequence | median seed-adjusted z-score
1 | GGAUAUUGGAUUGCCUAGATT against TCFL5 | active: 1.52
2 | GGCAGUACAUGUACGAUGATT against AGXT2L2 | inactive: -0.0495
3 | CAGCCUAAGUAAAUACGAATT against TRPS1 | inactive: -0.125
4 | GCAAGAAUGUGACCUGCAATT against PVR | inactive: -0.324
5 | GUAUUGUGGUAGACAUGAATT against GNL3 | inactive: 0.572
6 | GCAUCAACGGCUUCUGCGATT against GGA1 | inactive: 0.172
7 | AGAGGAAUCAGACAACAGATT against CRNN | inactive: -0.0758
8 | CCGUCAUGGUUGAUGGAGATT against SEMA4D | inactive: 0.309
9 | GGAGAAUAUUGUAUAAGCUTT against SNRNP40 | inactive: 0.677
10 | GCAUGCUAAUUGGACUUUATT against PON1 | inactive: 0
11 | GAUCAGUCAGUUUAUCCUATT against CHEK2 | inactive: 0.585
12 | GGAAAGGUCUAGAUCAGGATT against SEL1L2 | inactive: -0.342
13 | GCUUUUCCUGCUUACCCUATT against GPR172A | inactive: 0.382
14 | CAUUGAACCUGGUUACUAUTT against XPNPEP2 | inactive: -0.158
15 | UCUCUCUAUUGAUCUCCUATT against SLC22A11 | inactive: 0
16 | GGACAGUCUUCUGUAUGCATT against RBM39 | active: -1.82
17 | ACAUGCACAGCAACAAUAATT against ZNF648 | inactive: -0.000686
18 | UCACACCAACAGUAACUUATT against ROBO1 | inactive: -0.096
19 | AGAUCAUUUUCCAUACGCUTT against ZFAND2A | inactive: 0
20 | GCCUCAUAGGGAUGACAAATT against SNX1 | inactive: 0.0261
21 | GGUCAUCAGGAUUGCCUAATT against TFRC | inactive: 0.019
22 | GAAAGUUCGUUUCUAUCGATT against DCLK1 | inactive: 0.193
23 | CGAGGUCACCAACCAGUUUTT against UCHL3 | inactive: 0.378

Row | Sequence | median seed-adjusted z-score
24 | CCUAAGUUACUACUAGUAUTT against ENPP4 | inactive: 0
25 | CAAAGAGACGGAUCAAGAATT against TRIM38 | inactive: -0.375
26 | CACAUAUAGAGGAACCUAUTT against ZNF396 | inactive: -0.247
27 | GGAGCUACCUCACCACAAATT against ITIH5 | inactive: -0.289
28 | CCCUGUCCUUAGCACUCUATT against GFI1B | inactive: 0.154
29 | GCCUUGUUAUCGCACAGCUTT against CLPP | inactive: -0.118
30 | GGAUAGUAAUACUUAUGCATT against DNAH8 | inactive: 0
31 | CCUCAGGCAUGUCUUGUAATT against NUBP2 | inactive: -0.21
32 | GCUGAGAAGUGCCUACUCATT against NANOS2 | inactive: 0.565
33 | GUACUUGGAUUGUACCCAUTT against SLC13A1 | inactive: 0.183
34 | AGGACUCGGAGAAACUGAATT against APOA4 | inactive: 0.195
35 | GAAUGAUGGUGAGAUACGATT against REPS2 | inactive: 0.454
36 | GGGUGUCUAAAGGUACAUATT against FSD2 | inactive: 0.359
37 | CAACCUGUGCAAGUACAGATT against KLK14 | inactive: -0.0998
38 | UGGUCAUUGUGAUCAGUUATT against GPR120 | inactive: -0.578
39 | GGGAGAUCCUAGAACAAGATT against TAOK1 | inactive: -0.0533
40 | GCCUCACAGGUGCAUCAUATT against TSC2 | active: 1.11
41 | GACUAUCACUCCACGAAGATT against GAS6 | inactive: -0.493
42 | GCAUCGCGGGAAAACAAUATT against PPP2R2A | inactive: -0.596
43 | CCUUAAUGGUUGCCGGGUATT against PAPOLB | inactive: 0.749
44 | GCAUCUCUUUUUACGAUAATT against LRRN3 | inactive: 0
45 | UAAUCAAGCUGAAAACAGATT against TRYX3 | active: 2.3
46 | GCAGAAGGCUCAGUAGCUATT against NAT5 | inactive: -0.0124

A different layout for part of the listing above:
Row	Sequence	median seed-adjusted z-score
28	CCCUGUCCUUAGCACUCUATT against GFI1B	inactive: 0.154
29	GCCUUGUUAUCGCACAGCUTT against CLPP	inactive: -0.118
30	GGAUAGUAAUACUUAUGCATT against DNAH8	inactive: 0

The results go on.

Row | Sequence | median seed-adjusted z-score
47 | CAACCCAGGCUUUAGGCAGTT against DUSP15 | inactive: 0
48 | GGUUAUGCUACCAAACAAATT against DUXA | inactive: 0
49 | CCUUAUGAAUGUCAGCAAUTT against ZNF763 | inactive: 0.236
50 | CCGUAGCUCUUAUCUAGCATT against KCNJ2 | inactive: -0.0834
51 | GCUUACCUGCGGCGAAUUATT against ARHGEF2 | inactive: 0.0929
52 | ACUCUUCUGUGAAAUAGCATT against GLIS2 | inactive: 0.206
53 | GGAGACGGAUGGGAGUUUATT against ETS2 | inactive: 0.636
54 | GCACUCUCGUUAUACAUCATT against ZNF614 | inactive: 0.0971
55 | AGCUGACCCUGCUUAAAGATT against SLC25A22 | inactive: -0.444
56 | CGGCUCAACUCGCAUCUCATT against CAV2 | inactive: -0.00895
57 | ACCACGCAUUAAAACCAAATT against PRKCE | inactive: 0.568
58 | UGACCGAACUGGACACUAATT against TADA3L | inactive: 0.00625
59 | GGCAUUUGCUUGUACCUAUTT against NEK3 | inactive: 0.118
60 | GAGUUCUGGGCAAAACUUATT against GADL1 | inactive: 0
61 | GGAUAAAUCUAUAAGCACATT against PLS1 | inactive: -0.0715
62 | CUUUGACCAUGCUACGUCATT against P4HA3 | inactive: 0
63 | CCAGUAGCUUUGCACCUGATT against PARK2 | inactive: 0.146
64 | GGUGAUGAGUGUUAAGGCATT against DTX4 | inactive: 0.409
65 | CAUCCGUACUUCAAACAAUTT against SERINC1 | inactive: -0.255
66 | GAACAGGAGAAACUCUUAATT against TRAF3IP3 | inactive: 0.0238
67 | GCACAAUUGACUUCCCUGATT against CALM2 | inactive: 0.127
68 | CGCUAUUCGGGCUCCUAUATT against RBM14 | inactive: -0.0317
69 | GGCGAUAUGAUGAUCCUGATT against HSPA9 | inactive: 0.622
